Data: PubChem BioAssay AID493014 (National Center for Advancing Translational Sciences (NCATS), 2011)
About 170 (0.05%) of roughly 340,000 compounds were called active. Inconclusive means that the source gave no clear call. Such entries were picked first, then a sample of the others. The call rests on the fitted dose curve; in most records, active means well fitted inhibition curve with a large enough effect in the signal ratio, with a control signal flat (not every such curve was filed as active); inconclusive means small, poorly fitted or top-dose-only effect, or effect the other way, or a change in a side signal; inactive means flat fitted curve, though single readings scatter; the % refers to the signal ratio. Potencies beside an inconclusive call are fits to weak or partial responses and may not hold up.

assay: qHTS Assay to Find Inhibitors of Chronic Active B-Cell Receptor Signaling; conditions: ABC-DLBCL IkBa-CBG/CBR reporter, luminescence ratio (green luciferase fused to IkBa over red control in TMD8 lymphoma cells), 4 h; activity change, negative = inhibition: at 46.1 µM (top of the series) unless noted;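 on activity change, negative = inhibition: plate controls were basal doxycycline-induced cells for no effect and cells given 10 µM MG132 for full effect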
In short: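 TMD8 human ABC-DLBCL cells with doxycycline-inducible IκBα–green luciferase fusion and unfused red luciferase, in 0.5% FBS medium; compounds up to 46 uM, 4 h at 37C. Green/red luminescence ratio, filter-overlap corrected, fitted to concentration-response curves.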
Potency means the concentration at half of the fitted maximal effect.

SMILES | Potency | activity change, negative = inhibition
O=C(NC(=S)Nc1ccc(NC(=O)c2cccs2)cc1)c1ccco1 | inconclusive: 11.6 µM [falling, partial curve, poor fit] | 
CCOC(=O)C(Cc1ccccc1)NC(=O)Cn1nnc(-c2ccc(SC)cc2)n1 (stereo not drawn) |  | inconclusive: 0.656%
CC(=O)c1c(C)nn(C(=O)c2cccs2)c1C |  | inconclusive: 7.46%
CCOC(=O)C1CCN(c2ccc(Cl)nn2)CC1 |  | inconclusive: 2.41%
COc1ccc(/C=N/NC(=O)c2cc(-c3cccnc3)nc3ccccc23)c(OC)c1 |  | inactive
CC(=O)c1ccc(NC(=O)c2ccc3nc(-c4ccco4)c(-c4ccco4)nc3c2)cc1 | inconclusive: 20.6 µM [rising, single point] | 
O=C(CCc1ccccc1)NNC(=O)Nc1ccc(Br)cc1 |  | inconclusive: 17.2%
O=C(CSc1ncccc1-c1nc2ccccc2[nH]1)Nc1ccc2c(c1)OCCO2 |  | inconclusive: 345%
COC(=O)c1cc2ccsc2n1Cc1ccccc1F |  | inconclusive: -0.675%
CCn1c(CCNC(=O)c2ccc(OC)c(OC)c2)nc2ccccc21 |  | inconclusive: 15.7%
Cc1cc(OCC(=O)Nc2ccccc2N2CCOCC2)c(C(C)C)cc1Cl | inconclusive: 16.4 µM [falling, partial curve] | 
COc1ccc(NC(=O)NCCc2ccc(Cl)cc2)cc1OC |  | inconclusive: 0.2%
N/C(=N\OC(=O)CCC1CCCC1)c1ccncc1 |  | inconclusive: 7.9%
Cc1cccc(C(=O)N[C@H](C(=O)Nc2ncc(C)s2)C(C)C)c1 |  | inconclusive: 23.2%
Clc1cc(Cl)cc(C2=NCCC(c3ccccc3)O2)c1 (stereo not drawn) |  | inactive
COc1ccc(-c2csc(Nc3ccc(S(N)(=O)=O)cc3)n2)cc1OC | inconclusive: 5.62 µM [falling, single point] | 
O=C(c1ccc(-c2ccccc2)cc1)C1CCCN(Cc2ccncc2)C1 (stereo not drawn) | inconclusive: 25.1 µM [falling, single point] | 
O=c1[nH]nc(Cc2ccc3ccccc3n2)c2ccccc12 |  | inconclusive: 8.95%
CCOC(=O)C1CCN(C(=O)CCc2c(C)nc3cc(-c4ccc(OC)cc4OC)nn3c2C)CC1 | inconclusive: 10 µM [falling, partial curve] | 
COc1ccccc1N1CCN(C(=O)c2ccc3c(Cl)c4c(nc3c2)CCCC4)CC1 |  | inconclusive: -19.6%
N#Cc1c(NC(=O)COC(=O)C2CC3C=CC2C3)oc(-c2ccccc2)c1-c1ccccc1 (stereo not drawn) |  | inconclusive: 2.27%
CCn1c(SCC(=O)Nc2sc(C)c(C)c2C#N)nnc1C1CC1 |  | inconclusive: 8.37%
C=CCNC(=O)c1ccc(C(=O)c2ccccc2)cc1 | inconclusive: 35.5 µM [falling, partial curve, poor fit] | 
C[C@H](NC(=O)C(c1ccccc1)c1ccccc1)c1ccccc1 |  | inconclusive: 5.84%
COc1ccc(CNC(=O)CCc2c(C)nc3cc(-c4ccccc4OC)nn3c2C)cc1 | inconclusive: 15.8 µM [falling, partial curve] | 
Cc1cccc(-c2noc(CN(C(=O)c3ccc4c(c3)OCO4)C(C)C)n2)c1 |  | inconclusive: -14.3%

SMILES | Potency | activity change, negative = inhibition
CCOC(=O)CNC(=O)c1cn(C)c(=O)c2cc(OC)c(OC)cc12 |  | inconclusive: 2.25%
COc1ccc(-c2ccc(=O)n(CC(=O)Nc3ccc(C)cc3C)n2)cc1 |  | inconclusive: 16.1%
Cn1c(C2=C(O)CN(Cc3ccccc3)C2=N)nc2ccccc21 |  | inconclusive: -12.5%
Cc1ccc(-c2ccc(CCC(=O)O)n2-c2cccc(O)c2)cc1 | inconclusive: 1.84 µM [rising, full curve, poor fit] | 
COC(=O)COc1cccc2c(=O)n(CC(=O)NCc3ccccc3)ccc12 | inconclusive: 11.2 µM [falling, partial curve] | 
CN1CCN(CCCNC(=O)c2ccc(/C=C3\Oc4ccccc4N(Cc4ccccc4F)C3=O)cc2)CC1 | inconclusive: 35.5 µM [falling, single point] | 
O=C(CNC(=O)c1cn2ccccc2n1)Nc1ccc(F)c(F)c1 | inconclusive: 16.4 µM [falling, partial curve] | 
O=C(O)C1CCN(C(=O)c2ccc(Cl)cc2)CC1 |  | inconclusive: -12.6%
O=[N+]([O-])c1ccc(N2CCN(CCOc3nonc3-c3ccccc3)CC2)c(Cl)c1 |  | inactive
COc1cc(/C=N/n2nnnc2N)ccc1OC(C)C |  | inconclusive: -1.38%
O=C(CCN1C(=O)c2ccccc2S1(=O)=O)Nc1ccc(Cl)cc1 |  | inactive
COc1ccccc1Nc1cc(C(=O)NC2CCCC2)c2ccccc2n1 |  | inactive
Cc1cc(NC(=O)c2ccc(-c3ccccc3[N+](=O)[O-])o2)no1 |  | inactive
S=C1Cc2ccccc2C(c2ccc(Cl)cc2)N1 (stereo not drawn) |  | inconclusive: -4.05%
O=C(NNC(=O)c1cccs1)c1ccc([N+](=O)[O-])cc1 | inconclusive: 3.55 µM [rising, partial curve, poor fit] | 
CCOc1ccc(N/C=C/C(=O)c2cc(OC)c(OC)c(OC)c2)cc1 |  | inconclusive: -0.882%
Cn1c(=O)[nH]c(=O)c2c1nc(N/N=C/c1cccnc1)n2Cc1ccc(Cl)cc1 |  | inconclusive: -0.707%
CCOC(=O)N1CCN(C(=O)c2cccc(NC(=O)c3ccco3)c2)CC1 | inconclusive: 23.1 µM [falling, single point] | 
COc1ccc(CC(=O)OCC(=O)NCc2ccc(Cl)cc2)cc1 |  | inconclusive: 2.97%
S=c1cnc2ccccc2[nH]1 |  | inconclusive: 10.5%
CCn1c(SCC(=O)N/N=C/C=C\c2ccccc2[N+](=O)[O-])nnc1-c1ccccc1 |  | inactive
CCc1ccc(/C=C2\SC(=S)N(CCCC(=O)Nc3nccs3)C2=O)cc1 | inconclusive: 18.4 µM [falling, partial curve] | 
CCC(C)c1ccc(-c2cc(C(=O)OCC(=O)Nc3cc(C)on3)c3ccccc3n2)cc1 (stereo not drawn) |  | inconclusive: 5.58%
O=C(O)c1ccccc1-c1ccccc1C(=O)NNc1ccccc1 |  | inconclusive: 5.8%
CC1(C)CCc2cc(S(=O)(=O)N3CCN(S(=O)(=O)c4c(F)cccc4F)CC3)ccc2O1 |  | inactive
CN1C(=O)c2oc3ccccc3c(=O)c2C1c1ccncc1 (stereo not drawn) |  | inconclusive: -11.5%

Some of the entries above, set out differently.
SMILES	Potency	activity change, negative = inhibition
COc1cc(/C=N/n2nnnc2N)ccc1OC(C)C		inconclusive: -1.38%
O=C(CCN1C(=O)c2ccccc2S1(=O)=O)Nc1ccc(Cl)cc1		inactive

Remaining list, next part

SMILES | Potency | activity change, negative = inhibition
Cc1cccc(Sc2c([N+](=O)[O-])ncn2C)c1 |  | inconclusive: -24.6%
Cc1nc(N2CCOCC2)sc1C(=O)NN |  | inconclusive: -0.482%
O=C(C1CCCN(Cc2ccncc2)C1)N1CCc2ccccc2C1 (stereo not drawn) |  | inconclusive: 7.87%
Cc1cccc(N2C(=O)C3C(c4ccccc4)OC4(C(=O)c5ccccc5C4=O)C3C2=O)c1 (stereo not drawn) |  | inconclusive: -7.75%
COc1ccc(CNC(=O)C2CCCN(c3nccc(C)n3)C2)cc1 (stereo not drawn) |  | inconclusive: 11.4%
O=C(CNC(=O)c1ccccc1)OC(C(=O)Nc1cc(C(F)(F)F)ccc1Cl)c1ccccc1 (stereo not drawn) |  | inconclusive: 5.12%
CCCCNc1c(-c2cccc(-c3cc(C(C)=O)cs3)c2)nc2ccc(C)cn12 |  | inconclusive: -10.5%
COc1ccc2cc(C(=O)NCc3ccco3)c(=O)oc2c1 | inconclusive: 11.6 µM [falling, partial curve] | 
CCC1CCCCN1CCN1C(=O)C2C(C(=O)Nc3cccc(OC)c3)C3C=CC2(O3)C1C(=O)NC1CCCCC1 (stereo not drawn) |  | inactive
COc1ccc(-c2nc3ccccc3nc2-c2ccc(OC)cc2)cc1 |  | inconclusive: 14.2%
Cn1c(=O)c2c(nc(SCC(=O)NCC3CCCO3)n2Cc2ccc(F)cc2)n(C)c1=O (stereo not drawn) |  | inconclusive: -9.92%
CCOC(=O)c1sc(NC(=O)c2cccc(S(=O)(=O)N(CC)CC)c2)cc1C | inconclusive: 29.1 µM [falling, single point] | 
O=C(O)c1ccc(-n2c(-c3ccc(Br)cc3)n[nH]c2=S)cc1 | inconclusive: 20.6 µM [falling, partial curve] | 
CCc1nnc(NC(=O)CSc2nnc3c(n2)[nH]c2ccccc23)s1 |  | inconclusive: 7.02%
Cc1ccc2nc(-c3ccc(NC(=O)CSc4nc(N)cc(=O)[nH]4)cc3)sc2c1 |  | inconclusive: 9.05%
O=C(c1ccc(-c2cccc(C(F)(F)F)c2)o1)N1CCCC(C(F)(F)F)C1 (stereo not drawn) |  | inconclusive: 17.9%
CCOC(=O)Cc1csc(SC(C)C(=O)NC2CCCCC2C)n1 (stereo not drawn) |  | inactive
CC(=O)c1ccc(OCC(=O)Nc2cccc(S(=O)(=O)N3CCCC3)c2)cc1 |  | inactive
C/C(=N\NC(=O)c1c(Cl)c(C)nn1C)c1cccc(NC(=O)COc2ccccc2)c1 |  | inactive
COc1ccc(NC(=O)c2ccc(NS(=O)(=O)c3cccc4cccnc34)cc2)cc1 |  | inconclusive: -13.6%
COc1cc(NC(=O)COC(=O)[C@@H]2CCCN2S(=O)(=O)c2ccc(Cl)cc2)cc(OC)c1OC |  | inconclusive: -0.106%
C=CCNC(=O)/C(C#N)=C/c1c(N2CC(C)OC(C)C2)nc2ccccn2c1=O (stereo not drawn) |  | inconclusive: 0.142%
Cc1c(C)c2ccc(OCC(=O)N3CC[C@@]4(O)CCCC[C@H]4C3)cc2oc1=O | inconclusive: 0.562 µM [falling, partial curve, poor fit] | 
COc1cccc(OCc2cc(C(=O)N3CCC(C(O)C(C)C)CC3)no2)c1 (stereo not drawn) |  | inconclusive: -8.53%
CCN(CC)c1ccc(N=Cc2ccc([N+](=O)[O-])o2)cc1 |  | inactive
COc1ccc(/C=C/C(=O)c2cc(F)ccc2OC(=O)c2ccccc2OC)cc1OC | inconclusive: 3.55 µM [falling, partial curve, poor fit] | 

Part of the list above in order of length of the SMILES, ascending:
SMILES | Potency | activity change, negative = inhibition
COc1ccc(CNC(=O)C2CCCN(c3nccc(C)n3)C2)cc1 (stereo not drawn) |  | inconclusive: 11.4%
Cc1cccc(C(=O)N[C@H](C(=O)Nc2ncc(C)s2)C(C)C)c1 |  | inconclusive: 23.2%
Cn1c(=O)c2c(nc(SCC(=O)NCC3CCCO3)n2Cc2ccc(F)cc2)n(C)c1=O (stereo not drawn) |  | inconclusive: -9.92%
CCC1CCCCN1CCN1C(=O)C2C(C(=O)Nc3cccc(OC)c3)C3C=CC2(O3)C1C(=O)NC1CCCCC1 (stereo not drawn) |  | inactive
